# Source: PubChem BioAssay AID2274 (NMMLSC, 2010)
# The list shows a part of the results.
# Experiment: modulators of CIT2-GFP expression in yeast, confirmation, S. cerevisiae, GFP fusion, cherry picks, mother/daughter gates (AID 2274)
# Details: S. cerevisiae CIT2-GFP strain, flow cytometry, 3 h, at 10 µM, stronger effect = higher value
# [1] = measured here: daughter cell gate
# [2] = measured here: mother cell gate
SMILES,"GFP response, % of DMSO [1]","GFP response, % of DMSO [2]"
O=P(Nc1nccs1)(c1ccccc1)c1nc2ccccc2s1 (stereo unspecified),98.3%,96.8%
CCOP(=O)(Nc1cccc2ccccc12)OCC,105%,102%
C[N+]1=C2C=CC=CC=C2SC12C([N+](=O)[O-])=CC([N+](=O)[O-])=C[C-]2[N+](=O)[O-] (stereo unspecified),101%,96.8%
